From publication PMC13036090
These are yes or no findings as the source states them, for the method shown. Binding seen in cells or lysates may run through a third protein. Some binding calls cover weakened binding; strength is not graded here. Where a sequence is shown, tags or fusion partners need not be part of it.

Protein sequences, listed by entry. Tags and fused reporters are not part of them.
UniProt Q14974: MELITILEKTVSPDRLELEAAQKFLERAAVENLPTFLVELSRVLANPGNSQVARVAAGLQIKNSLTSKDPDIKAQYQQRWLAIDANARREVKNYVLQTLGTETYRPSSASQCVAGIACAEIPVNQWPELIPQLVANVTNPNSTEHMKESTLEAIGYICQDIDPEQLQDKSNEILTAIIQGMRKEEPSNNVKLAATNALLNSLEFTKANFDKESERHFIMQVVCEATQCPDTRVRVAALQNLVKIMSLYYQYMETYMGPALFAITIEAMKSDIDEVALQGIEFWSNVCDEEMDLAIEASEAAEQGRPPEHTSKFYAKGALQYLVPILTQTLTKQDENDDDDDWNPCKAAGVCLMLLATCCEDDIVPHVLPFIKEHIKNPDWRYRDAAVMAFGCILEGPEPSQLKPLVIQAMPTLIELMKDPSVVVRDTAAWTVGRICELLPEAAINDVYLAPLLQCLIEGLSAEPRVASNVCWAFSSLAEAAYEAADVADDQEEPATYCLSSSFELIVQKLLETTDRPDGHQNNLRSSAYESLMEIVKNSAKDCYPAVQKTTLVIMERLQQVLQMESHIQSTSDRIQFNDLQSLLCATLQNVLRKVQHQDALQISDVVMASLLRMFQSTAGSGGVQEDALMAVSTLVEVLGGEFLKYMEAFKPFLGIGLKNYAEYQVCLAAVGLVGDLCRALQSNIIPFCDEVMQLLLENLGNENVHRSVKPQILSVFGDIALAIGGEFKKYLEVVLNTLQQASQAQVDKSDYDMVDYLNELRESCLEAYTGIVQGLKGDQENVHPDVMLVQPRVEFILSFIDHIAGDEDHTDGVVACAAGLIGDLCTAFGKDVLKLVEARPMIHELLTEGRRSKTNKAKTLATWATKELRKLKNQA
UniProt P42224: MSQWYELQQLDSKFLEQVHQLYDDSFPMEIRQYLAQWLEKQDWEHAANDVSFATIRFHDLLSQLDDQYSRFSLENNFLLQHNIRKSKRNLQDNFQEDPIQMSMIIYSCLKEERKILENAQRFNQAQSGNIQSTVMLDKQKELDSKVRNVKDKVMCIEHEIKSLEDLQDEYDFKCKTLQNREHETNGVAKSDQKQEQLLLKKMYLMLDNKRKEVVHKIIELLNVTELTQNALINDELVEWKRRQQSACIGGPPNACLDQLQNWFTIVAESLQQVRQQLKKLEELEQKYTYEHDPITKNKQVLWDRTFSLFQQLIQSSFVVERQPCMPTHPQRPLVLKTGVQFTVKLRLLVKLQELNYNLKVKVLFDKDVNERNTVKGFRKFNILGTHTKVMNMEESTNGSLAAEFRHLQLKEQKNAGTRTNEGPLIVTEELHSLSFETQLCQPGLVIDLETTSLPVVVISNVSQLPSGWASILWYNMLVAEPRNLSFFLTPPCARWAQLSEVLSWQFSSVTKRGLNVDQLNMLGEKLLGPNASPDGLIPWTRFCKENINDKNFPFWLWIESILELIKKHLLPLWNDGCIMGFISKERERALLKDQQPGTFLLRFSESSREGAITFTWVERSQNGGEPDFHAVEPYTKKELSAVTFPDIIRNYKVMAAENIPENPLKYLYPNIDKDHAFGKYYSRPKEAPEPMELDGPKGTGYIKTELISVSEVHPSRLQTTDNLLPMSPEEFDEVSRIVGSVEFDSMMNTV
UniProt Q15717: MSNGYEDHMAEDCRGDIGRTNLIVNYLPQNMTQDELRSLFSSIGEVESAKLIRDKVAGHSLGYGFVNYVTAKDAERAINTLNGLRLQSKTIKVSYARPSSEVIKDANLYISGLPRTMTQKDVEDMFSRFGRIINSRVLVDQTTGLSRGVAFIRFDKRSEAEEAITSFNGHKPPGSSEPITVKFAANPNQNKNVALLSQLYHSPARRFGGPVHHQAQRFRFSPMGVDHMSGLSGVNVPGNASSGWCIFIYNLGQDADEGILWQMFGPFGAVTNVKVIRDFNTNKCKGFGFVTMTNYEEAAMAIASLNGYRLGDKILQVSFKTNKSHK

T1: HA-tagged UGDH, wild type (human) (UniProt O60701)
T1 sequence (chain, O-GlcNAc on Ser350 (major site) on part of the protein): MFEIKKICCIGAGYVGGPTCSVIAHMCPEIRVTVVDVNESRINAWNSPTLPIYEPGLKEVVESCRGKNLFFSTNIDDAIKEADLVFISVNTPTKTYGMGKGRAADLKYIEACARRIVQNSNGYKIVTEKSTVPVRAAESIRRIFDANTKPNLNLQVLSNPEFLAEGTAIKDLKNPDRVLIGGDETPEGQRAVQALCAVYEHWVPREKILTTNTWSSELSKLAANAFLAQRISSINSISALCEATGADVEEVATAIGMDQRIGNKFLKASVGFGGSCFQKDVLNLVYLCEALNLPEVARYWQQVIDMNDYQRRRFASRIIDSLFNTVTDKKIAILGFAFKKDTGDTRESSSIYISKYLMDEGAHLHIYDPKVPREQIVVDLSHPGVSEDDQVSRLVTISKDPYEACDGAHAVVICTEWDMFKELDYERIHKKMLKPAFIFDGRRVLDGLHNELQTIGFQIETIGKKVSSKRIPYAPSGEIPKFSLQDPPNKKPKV

T2: UGDH (uridine diphosphate glucose dehydrogenase), wild type, construct not stated for these experiments (human) (UniProt O60701)
T2 sequence (chain, O-GlcNAc on Ser350 (major site) on part of the protein): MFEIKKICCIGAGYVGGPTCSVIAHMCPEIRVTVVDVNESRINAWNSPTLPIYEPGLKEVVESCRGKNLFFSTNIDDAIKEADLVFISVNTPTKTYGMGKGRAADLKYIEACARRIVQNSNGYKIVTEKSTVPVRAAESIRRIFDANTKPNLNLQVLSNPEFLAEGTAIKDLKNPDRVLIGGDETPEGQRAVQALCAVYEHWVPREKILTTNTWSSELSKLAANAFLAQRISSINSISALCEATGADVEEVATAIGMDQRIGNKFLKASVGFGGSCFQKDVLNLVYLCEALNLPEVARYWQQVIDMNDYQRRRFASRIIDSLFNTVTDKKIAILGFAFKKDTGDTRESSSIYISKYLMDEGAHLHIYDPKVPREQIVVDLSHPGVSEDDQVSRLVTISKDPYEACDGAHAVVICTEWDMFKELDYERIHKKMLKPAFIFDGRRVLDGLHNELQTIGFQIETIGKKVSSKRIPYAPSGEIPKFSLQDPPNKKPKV

B1: O-GlcNAc transferase (OGT) (enzyme, UniProt O15294 1-1046)
chain: MASSVGNVADSTEPTKRMLSFQGLAELAHREYQAGDFEAAERHCMQLWRQEPDNTGVLLLLSSIHFQCRRLDRSAHFSTLAIKQNPLLAEAYSNLGNVYKERGQLQEAIEHYRHALRLKPDFIDGYINLAAALVAAGDMEGAVQAYVSALQYNPDLYCVRSDLGNLLKALGRLEEAKACYLKAIETQPNFAVAWSNLGCVFNAQGEIWLAIHHFEKAVTLDPNFLDAYINLGNVLKEARIFDRAVAAYLRALSLSPNHAVVHGNLACVYYEQGLIDLAIDTYRRAIELQPHFPDAYCNLANALKEKGSVAEAEDCYNTALRLCPTHADSLNNLANIKREQGNIEEAVRLYRKALEVFPEFAAAHSNLASVLQQQGKLQEALMHYKEAIRISPTFADAYSNMGNTLKEMQDVQGALQCYTRAIQINPAFADAHSNLASIHKDSGNIPEAIASYRTALKLKPDFPDAYCNLAHCLQIVCDWTDYDERMKKLVSIVADQLEKNRLPSVHPHHSMLYPLSHGFRKAIAERHGNLCLDKINVLHKPPYEHPKDLKLSDGRLRVGYVSSDFGNHPTSHLMQSIPGMHNPDKFEVFCYALSPDDGTNFRVKVMAEANHFIDLSQIPCNGKAADRIHQDGIHILVNMNGYTKGARNELFALRPAPIQAMWLGYPGTSGALFMDYIITDQETSPAEVAEQYSEKLAYMPHTFFIGDHANMFPHLKKKAVIDFKSNGHIYDNRIVLNGIDLKAFLDSLPDVKIVKMKCPDGGDNADSSNTALNMPVIPMNTIAEAVIEMINRGQIQITINGFSISNGLATTQINNKAATGEEVPRTIIVTTRSQYGLPEDAIVYCNFNQLYKIDPSTLQMWANILKRVPNSVLWLLRFPAVGEPNIQQYAQNMGLPQNRIIFSPVAPKEEHVRRGQLADVCLDTPLCNGHTTGMDVLWAGTPMVTMPGETLASRVAASQLTCLGCLELIAKNRQEYEDIAVKLGTDLEYLKKVRGKVWKQRISSPLFNTKQYTMELERLYLQMWEHYAAGNKPDHMIKPVEVTESA
B2: O-GlcNAc hydrolase (OGA) (enzyme, UniProt O60502 1-916)
chain: MVQKESQATLEERESELSSNPAASAGASLEPPAAPAPGEDNPAGAGGAAVAGAAGGARRFLCGVVEGFYGRPWVMEQRKELFRRLQKWELNTYLYAPKDDYKHRMFWREMYSVEEAEQLMTLISAAREYEIEFIYAISPGLDITFSNPKEVSTLKRKLDQVSQFGCRSFALLFDDIDHNMCAADKEVFSSFAHAQVSITNEIYQYLGEPETFLFCPTEYCGTFCYPNVSQSPYLRTVGEKLLPGIEVLWTGPKVVSKEIPVESIEEVSKIIKRAPVIWDNIHANDYDQKRLFLGPYKGRSTELIPRLKGVLTNPNCEFEANYVAIHTLATWYKSNMNGVRKDVVMTDSEDSTVSIQIKLENEGSDEDIETDVLYSPQMALKLALTEWLQEFGVPHQYSSRQVAHSGAKASVVDGTPLVAAPSLNATTVVTTVYQEPIMSQGAALSGEPTTLTKEEEKKQPDEEPMDMVVEKQEETDHKNDNQILSEIVEAKMAEELKPMDTDKESIAESKSPEMSMQEDCISDIAPMQTDEQTNKEQFVPGPNEKPLYTAEPVTLEDLQLLADLFYLPYEHGPKGAQMLREFQWLRANSSVVSVNCKGKDSEKIEEWRSRAAKFEEMCGLVMGMFTRLSNCANRTILYDMYSYVWDIKSIMSMVKSFVQWLGCRSHSSAQFLIGDQEPWAFRGGLAGEFQRLLPIDGANDLFFQPPPLTPTSKVYTIRPYFPKDEASVYKICREMYDDGVGLPFQSQPDLIGDKLVGGLLSLSLDYCFVLEDEDGICGYALGTVDVTPFIKKCKISWIPFMQEKYTKPNGDKELSEAEKIMLSFHEEQEVLPETFLANFPSLIKMDIHKKVTDPSVAKSMMACLLSSLKANGSRGAFCEVRPDDKRILEFYSKLGCFEIAKMEGFPKDVVILGRSL

How the values were obtained:
[1] = target: T1, HA-tagged UGDH, wild type (human); experiment: co-IP; Fig. 7D-H; tagged proteins co-expressed in HEK293T; Co-IP buffer 0.4% NP-40, 150 mM NaCl, 50 mM Hepes, pH 7.8; anti-Flag/anti-HA magnetic agarose beads, 4 °C overnight; Western blotting; also with TMG or OSMI-4 treatment of the cells
[2] = target: T2, UGDH (uridine diphosphate glucose dehydrogenase), wild type, construct not stated for these experiments (human); experiment: co-IP; Fig. S8A; HuR and UGDH under modulation of O-GlcNAcylation; constructs and cells not told
[3] = target: T2, UGDH (uridine diphosphate glucose dehydrogenase), wild type, construct not stated for these experiments (human); experiment: co-IP; Fig. 1H, I; cells, tags and bait not told; Co-IP buffer 0.4% NP-40, 150 mM NaCl, 50 mM Hepes, pH 7.8; anti-Flag/anti-HA magnetic agarose beads, 4 °C overnight; Western blotting

Row | Molecule | binding [1] | binding [3] | also measured
1 | His-tagged KPNB1 (from UniProt Q14974 1-876) | binds |  | 
2 | Flag-tagged STAT1 (from UniProt P42224 1-750) | binds weakly |  | 
3 | HuR (from UniProt Q15717 1-326) |  |  | binding [2]: binds
4 | B1 |  | binds | 
5 | B2 |  | binds | 
